# Laboratory results reported in PubChem BioAssay AID1671190 (National Center for Advancing Translational Sciences (NCATS), 2021).
# Protein sequences, listed by entry. Tags and fused reporters are not part of them. Lines headed by an entry give the natural chain unless they say otherwise; changes in a name come on top.
# UniProt P18054: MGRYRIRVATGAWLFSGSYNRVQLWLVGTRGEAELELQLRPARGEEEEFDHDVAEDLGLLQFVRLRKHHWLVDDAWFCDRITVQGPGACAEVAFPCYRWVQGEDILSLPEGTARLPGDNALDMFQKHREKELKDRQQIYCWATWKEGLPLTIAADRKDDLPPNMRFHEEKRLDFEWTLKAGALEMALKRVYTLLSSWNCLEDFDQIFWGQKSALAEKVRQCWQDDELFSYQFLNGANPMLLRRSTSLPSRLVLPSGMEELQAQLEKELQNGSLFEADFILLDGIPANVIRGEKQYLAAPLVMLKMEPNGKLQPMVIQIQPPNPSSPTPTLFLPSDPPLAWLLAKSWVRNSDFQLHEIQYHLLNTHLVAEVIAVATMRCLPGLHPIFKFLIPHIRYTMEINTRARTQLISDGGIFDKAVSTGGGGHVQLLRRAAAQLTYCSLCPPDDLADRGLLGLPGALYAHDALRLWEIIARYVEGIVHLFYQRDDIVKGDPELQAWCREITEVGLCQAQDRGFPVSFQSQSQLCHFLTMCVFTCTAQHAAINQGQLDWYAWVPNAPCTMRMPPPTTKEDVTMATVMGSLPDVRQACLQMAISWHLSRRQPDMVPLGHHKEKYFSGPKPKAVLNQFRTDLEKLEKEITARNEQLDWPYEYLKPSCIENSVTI
# Values joined by “and” are separate entries in the source; they are usually repeats but may differ in a detail not shown here. Equal values may be shown once. About 6,100 (1.1%) of roughly 580,000 compounds were called active. This list was built around the results that the source calls inconclusive (neither active nor inactive); the mix of calls is not that of the screen. The call rests on the fitted dose curve; in most records, active means well fitted inhibition curve with a large enough effect; inconclusive means small, poorly fitted or top-dose-only effect, or another doubt; inactive means no such curve, though single readings can be large or run the other way. Where the call is inconclusive, the potency comes from a doubtful curve fit. Where a structure was tested more than once in an assay, its records may differ in their call.
# Molecular target: Polyunsaturated fatty acid lipoxygenase ALOX12 (Homo sapiens) (UniProt P18054)
# Test: Primary qHTS assay for inhibitors of human arachidonate 12S-lipoxygenase (ALOX12): Round 2
# Settings: purified 12hLO, xylenol orange hydroperoxide absorbance; series mostly up to 108 µM
# Summary of the method: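 Purified human 12hLO at 150 nM in 25 mM Hepes, 0.01% Triton X-100, pH 7.0, preincubated 15 min at room temperature with compound. Reaction started with 40 uM arachidonic acid, 30 min at room temperature. Hydroperoxide measured by Fe-xylenol orange, 573/405 nm absorbance ratio.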
# Potency means the concentration at half of the fitted maximal effect.
row,Compound,Potency
1,CCOC(=O)C1CCN(S(=O)(=O)c2ccc(OCC(=O)OC)cc2)CC1,inactive
2,COc1cc(OC)c(-n2cc(-c3ccc(OC)c(OC)c3)[nH]c2=S)cc1Cl,"inconclusive: 50.1 µM [inhibitor, partial curve, poor fit]"
3,CC(C)CCN1CCC(C2CCN(Cc3cccnc3)CC2)C1 (stereo not given),inactive
4,CCOc1ccc(NC(=O)CC2C(=O)N(c3ccccc3)C(=S)N2Cc2ccccn2)cc1 (stereo not given),"inconclusive: 112 µM [inhibitor, single point]"
5,COc1ccc(/C=C2\Oc3cc(OS(=O)(=O)c4ccc(C)cc4)ccc3C2=O)cc1OC,inactive
6,CC(=O)c1c[nH]c(C(=O)NC(c2cccc(F)c2)c2nccn2C)c1 (stereo not given),active: 22.4 µM
7,Nc1c(N(CCC2=CCCCC2)C(=O)COc2ccc([N+](=O)[O-])cc2)c(=O)[nH]c(=O)n1Cc1ccccc1,"inconclusive: 63.1 µM [inhibitor, partial curve, poor fit]"
8,O=C(Nc1ccc(Cl)cc1)C1CCCCN1S(=O)(=O)c1ccccc1 (stereo not given),"inconclusive: 50.1 µM [inhibitor, partial curve, poor fit]"
9,CC(=O)NCCNC(=S)Nc1ccc(F)cc1,"inconclusive: 126 µM [inhibitor, partial curve, poor fit]"
10,O=C(Nc1ccc2[nH]ccc2c1)c1ccccc1,"inconclusive: 44.7 µM [inhibitor, partial curve, poor fit]"
11,CCn1ncc2c(C(=O)Nc3cccc(OC)c3)cc(-c3cccs3)nc21,"inconclusive: 6.31 µM [inhibitor, full curve, poor fit]"
12,Cc1ccccc1OCCCCn1nnc2sc3c(c2c1=O)CCC(C)C3 (stereo not given),"inconclusive: 44.7 µM [inhibitor, full curve, poor fit]"
13,O=C(O)c1cc2ccc3ccccc3c2oc1=O,"inconclusive: 14.1 µM [inhibitor, partial curve, poor fit]"
14,CC1(C)C2CC[C@]1(C)C(=O)N(CCCCN1CCN(c3ccccn3)CC1)C2=O,"inconclusive: 35.5 µM [inhibitor, partial curve, poor fit]"
15,CCCCNC(=O)c1ccc(NC(C)=O)c(Cl)c1,"inconclusive: 56.2 µM [inhibitor, partial curve, poor fit]"
16,Cc1ccc(C)c(N2CCN(c3ccncc3N)CC2)c1,inactive
17,O=C(Nc1ccc(F)cc1)Nc1nnc([C@H]2C[C@H](O)[C@@H](CO)O2)s1,"inconclusive: 89.1 µM [inhibitor, partial curve, poor fit]"
18,O=C(O)c1nnn(-c2ccccc2)c1C(F)(F)F,"inconclusive: 7.94 µM [inhibitor, full curve]"
19,Cc1ccc(C(CNC(=O)c2sc3ccccc3c2Cl)N2CCCC2)o1 (stereo not given),"inconclusive: 50.1 µM [inhibitor, partial curve, poor fit]"
20,CCOC(=O)N1CCN(Cc2cc(=O)oc3cc(C)c(C)cc23)CC1,"inconclusive: 44.7 µM [inhibitor, partial curve, poor fit]"
21,CCOc1ccc(NC(=O)CSc2nc3ccsc3c(=O)n2CCCCCC(=O)O)cc1,"inconclusive: 100 µM [inhibitor, partial curve, poor fit]"
22,COC(=O)c1cc(=O)n(Cc2ccc3c(c2)OCO3)c(=Nc2ccccc2)s1,inactive

row,Compound,Potency
1,CCOc1ccc(C(C)=O)cc1COC(=O)CCc1cc(OC)c(OC)c(OC)c1,"inconclusive: 126 µM [inhibitor, single point]"
2,COc1ccccc1C(=O)NCC(=O)OCC(=O)c1ccc(Cl)s1,"inconclusive: 0.708 µM [inhibitor, full curve, poor fit]"
3,CC(=O)c1ccc(Nc2ncnc3c2oc2ccccc23)cc1,"inconclusive: 39.8 µM [inhibitor, single point]"
4,COc1ccc(/C=N/n2c(=S)n(C)c3ccccc32)cc1OC,inactive
5,CN1CCN(c2oc(-c3ccc(Cl)cc3)nc2C#N)CC1,"inconclusive: 35.5 µM [inhibitor, partial curve, poor fit]"
6,Cc1sc(NC(=O)CCl)c(C(=O)c2ccccc2)c1C,"inconclusive: 44.7 µM [inhibitor, partial curve, poor fit]"
7,CCOc1ccc(NCc2nc3ccccc3n2CCOc2ccc(C)cc2)cc1,inactive
8,CCCCC(=O)N(C)c1c(C)nc2ccc(C(=O)N3CCN(C(C)=O)CC3)cn12,"inconclusive: 5.62 µM [inhibitor, full curve, poor fit]"
9,Cc1ccc(-c2c[n+](CC(=O)c3cccs3)c3n2CCC3)cc1,"inconclusive: 89.1 µM [inhibitor, partial curve, poor fit]"
10,CCc1ccc(-n2nc3ccc(NC(=O)COc4ccc(OC)cc4)cc3n2)cc1,"inconclusive: 50.1 µM [inhibitor, partial curve, poor fit]"
11,CNNCc1ccc(C(=O)NC(C)C)cc1,"inconclusive: 16.1 µM [inhibitor, partial curve, poor fit] and active: 12.2 µM"
12,CC(C)c1ccc(-c2csc(Nc3ccc(C(=O)O)c(O)c3)n2)cc1,"inconclusive: 35.5 µM [inhibitor, partial curve, poor fit]"
13,COc1cccc(Nc2ncc3nc(-c4ccc(F)cc4)c(=O)n(C[C@H]4CCCO4)c3n2)c1,"inconclusive: 141 µM [inhibitor, single point]"
14,Nc1ccc(C(=O)Oc2ccccc2)c(O)c1,"inconclusive: 5.1 µM [inhibitor, partial curve, poor fit]"
15,CCNc1ncc2nc(-c3ccc(Cl)cc3)c(=O)n(C)c2n1,"inconclusive: 15.8 µM [inhibitor, single point]"
16,CCOC(=O)C1=C(O)/C(=C/c2ccc(OCC(=O)O)c(OC)c2)SC1=Nc1ccc(OCC)cc1,"inconclusive: 63.1 µM [inhibitor, partial curve, poor fit]"
17,CC(Oc1ccc(F)cc1)C(=O)Nc1ccc(-c2nc3ccccc3o2)cc1 (stereo not given),inactive
18,COc1cccc(CNC(=O)CCc2cc3ccc(C)cc3[nH]c2=O)c1OC,inactive
19,CC[C@]12c3[nH]c4ccc(OC)cc4c3CCN1C(=O)C(CC(=O)NCCCN(C)C)C[C@@H]2C(=O)N1CCN(C(=O)c2ccco2)CC1 (stereo not given in full),"inconclusive: 31.6 µM [inhibitor, single point]"
20,O=C(c1ccccc1OCc1nc(-c2ccccc2)no1)N1CCN(Cc2ccccc2)CC1,inactive
21,NC(=O)C(Sc1ncccc1Cl)c1ccccc1 (stereo not given),"inconclusive: 50.1 µM [inhibitor, partial curve, poor fit]"
22,COc1cc(Cl)c(C)cc1NC(=O)CSCC#N,inactive

# Quoted from the results shown for reference:
row,Compound,Potency
1,CCOc1ccc(C(C)=O)cc1COC(=O)CCc1cc(OC)c(OC)c(OC)c1,"inconclusive: 126 µM [inhibitor, single point]"
2,COc1ccccc1C(=O)NCC(=O)OCC(=O)c1ccc(Cl)s1,"inconclusive: 0.708 µM [inhibitor, full curve, poor fit]"
3,CC(=O)c1ccc(Nc2ncnc3c2oc2ccccc23)cc1,"inconclusive: 39.8 µM [inhibitor, single point]"
4,COc1ccc(/C=N/n2c(=S)n(C)c3ccccc32)cc1OC,inactive
5,CN1CCN(c2oc(-c3ccc(Cl)cc3)nc2C#N)CC1,"inconclusive: 35.5 µM [inhibitor, partial curve, poor fit]"
6,Cc1sc(NC(=O)CCl)c(C(=O)c2ccccc2)c1C,"inconclusive: 44.7 µM [inhibitor, partial curve, poor fit]"
7,CCOc1ccc(NCc2nc3ccccc3n2CCOc2ccc(C)cc2)cc1,inactive
8,CCCCC(=O)N(C)c1c(C)nc2ccc(C(=O)N3CCN(C(C)=O)CC3)cn12,"inconclusive: 5.62 µM [inhibitor, full curve, poor fit]"
9,Cc1ccc(-c2c[n+](CC(=O)c3cccs3)c3n2CCC3)cc1,"inconclusive: 89.1 µM [inhibitor, partial curve, poor fit]"
10,CCc1ccc(-n2nc3ccc(NC(=O)COc4ccc(OC)cc4)cc3n2)cc1,"inconclusive: 50.1 µM [inhibitor, partial curve, poor fit]"
11,CNNCc1ccc(C(=O)NC(C)C)cc1,"inconclusive: 16.1 µM [inhibitor, partial curve, poor fit] and active: 12.2 µM"
12,CC(C)c1ccc(-c2csc(Nc3ccc(C(=O)O)c(O)c3)n2)cc1,"inconclusive: 35.5 µM [inhibitor, partial curve, poor fit]"
13,COc1cccc(Nc2ncc3nc(-c4ccc(F)cc4)c(=O)n(C[C@H]4CCCO4)c3n2)c1,"inconclusive: 141 µM [inhibitor, single point]"
14,Nc1ccc(C(=O)Oc2ccccc2)c(O)c1,"inconclusive: 5.1 µM [inhibitor, partial curve, poor fit]"
15,CCNc1ncc2nc(-c3ccc(Cl)cc3)c(=O)n(C)c2n1,"inconclusive: 15.8 µM [inhibitor, single point]"
16,CCOC(=O)C1=C(O)/C(=C/c2ccc(OCC(=O)O)c(OC)c2)SC1=Nc1ccc(OCC)cc1,"inconclusive: 63.1 µM [inhibitor, partial curve, poor fit]"
17,CC(Oc1ccc(F)cc1)C(=O)Nc1ccc(-c2nc3ccccc3o2)cc1 (stereo not given),inactive

# (next part)

row,Compound,Potency
1,COCCn1ncc(N2CCCC(CC(=O)NCc3ccncc3)C2)cc1=O (stereo not given),"inconclusive: 5.01 µM [inhibitor, full curve, poor fit]"
2,CC1=CC(=O)C(C(C)=Nc2ccccc2Cl)C(=O)O1 (stereo not given),"inconclusive: 39.8 µM [inhibitor, partial curve, poor fit]"
3,CCOCCCNc1c(CC)c(C)c(C#N)c2nc3ccccc3n12,"inconclusive: 70.8 µM [inhibitor, partial curve, poor fit]"
4,Cc1c(-c2ccccc2)oc2c(C(=O)NCCN(C)C)cccc2c1=O,"inconclusive: 50.1 µM [inhibitor, partial curve, poor fit]"
5,Cc1ccc(S(=O)(=O)N2CCCC(CCC(=O)NCCCc3ccccc3)C2)cc1 (stereo not given),inactive
6,CN1CCc2c(C#N)c(N3CCCCC3)nc(NCc3ccccc3)c2C1,"inconclusive: 50.1 µM [inhibitor, partial curve, poor fit]"
7,COc1ccc(NC(=O)c2cc([N+](=O)[O-])ccc2O)cc1,inactive
8,COc1ccc(/C=C2\SC(=O)N(CCNC(=O)Cc3coc4cc(C)ccc34)C2=O)cc1OC,"inconclusive: 39.8 µM [inhibitor, partial curve, poor fit]"
9,O=C(CSc1ccccn1)N1CCN(c2ccc(Cl)cc2)CC1,inactive
10,O=C(Cn1c(CO)nc2ccccc21)NCCc1ccccc1,"inconclusive: 112 µM [inhibitor, single point]"
11,Cc1ccc(CNC(=O)CSc2nc3n[nH]c(C)c3c(=N)n2-c2ccccc2Cl)cc1,inactive
12,CC(=O)OCCNc1cc(N2CCN(C)CC2)c2noc3c2c1C(=O)c1ccccc1-3,inactive
13,CC(C)C[C@H]1CN(CCCC[C@H]2CNC(=O)C(=O)N2CC2CCCCC2)C(=O)C(=O)N1CCc1ccc(O)cc1,"inconclusive: 79.4 µM [inhibitor, single point]"
14,COc1ccc(C(=O)C2CCCN(C(=O)Cn3nc(C)nc3C)C2)cc1F (stereo not given),inactive
15,COc1ccc2[nH]c(=O)c(CCC(=O)O)cc2c1,inactive
16,COc1ccc(/C=C/c2cccc[n+]2C)c(O)c1,"inconclusive: 39.8 µM [inhibitor, partial curve, poor fit]"
17,O=C1Nc2ccccc2CN(CC2CCOCC2)C12CCNCC2,"inconclusive: 8.91 µM [inhibitor, full curve, poor fit]"
18,CCOc1ccc(CN(Cc2ccccc2)Cc2cc(=O)n3nc(CC)sc3n2)cc1,"inconclusive: 44.7 µM [inhibitor, partial curve, poor fit]"
19,O=C(Cc1c(Cl)cccc1Cl)NC(c1cccs1)C1CC1 (stereo not given),inactive
20,Cc1ccc2[nH]cc(CCNC(=O)c3cccc4ccccc34)c2c1,inactive
21,Cc1ccc(C)c(Sc2ccc(S(=O)(=O)Nc3ccc(C(=O)O)cc3)cc2)c1,"inconclusive: 39.8 µM [inhibitor, partial curve, poor fit]"
